According to article PMC3869937:
These are yes or no findings as the source states them, for the method shown. In cells and extracts the contact can be indirect. Some entries that bind do so weakly or less than the wild type.

Chains of the proteins cited; added tags and fusions are not shown. Residues count along the entry.
UniProt Q9K1H0, residues 22-797: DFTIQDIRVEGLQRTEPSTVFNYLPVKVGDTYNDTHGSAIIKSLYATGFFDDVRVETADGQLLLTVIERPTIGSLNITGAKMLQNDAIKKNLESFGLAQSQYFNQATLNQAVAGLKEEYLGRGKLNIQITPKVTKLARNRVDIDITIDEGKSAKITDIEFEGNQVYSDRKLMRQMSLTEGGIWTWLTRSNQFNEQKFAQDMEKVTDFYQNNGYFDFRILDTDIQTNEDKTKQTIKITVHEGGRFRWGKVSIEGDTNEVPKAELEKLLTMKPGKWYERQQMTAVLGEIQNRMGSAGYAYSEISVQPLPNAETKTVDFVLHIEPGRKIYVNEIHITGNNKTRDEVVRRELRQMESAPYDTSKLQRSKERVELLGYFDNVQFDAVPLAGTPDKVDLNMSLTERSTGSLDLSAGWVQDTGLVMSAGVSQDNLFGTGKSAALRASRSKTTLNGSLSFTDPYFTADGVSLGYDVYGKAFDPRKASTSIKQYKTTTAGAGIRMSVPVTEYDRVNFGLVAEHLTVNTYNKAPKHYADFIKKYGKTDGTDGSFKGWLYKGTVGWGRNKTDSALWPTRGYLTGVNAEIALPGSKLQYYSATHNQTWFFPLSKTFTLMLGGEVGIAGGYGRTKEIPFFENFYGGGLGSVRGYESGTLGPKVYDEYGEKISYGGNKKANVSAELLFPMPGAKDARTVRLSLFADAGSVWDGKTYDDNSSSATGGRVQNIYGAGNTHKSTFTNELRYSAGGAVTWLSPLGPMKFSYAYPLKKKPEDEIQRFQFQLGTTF
UniProt P77774, residues 20-392: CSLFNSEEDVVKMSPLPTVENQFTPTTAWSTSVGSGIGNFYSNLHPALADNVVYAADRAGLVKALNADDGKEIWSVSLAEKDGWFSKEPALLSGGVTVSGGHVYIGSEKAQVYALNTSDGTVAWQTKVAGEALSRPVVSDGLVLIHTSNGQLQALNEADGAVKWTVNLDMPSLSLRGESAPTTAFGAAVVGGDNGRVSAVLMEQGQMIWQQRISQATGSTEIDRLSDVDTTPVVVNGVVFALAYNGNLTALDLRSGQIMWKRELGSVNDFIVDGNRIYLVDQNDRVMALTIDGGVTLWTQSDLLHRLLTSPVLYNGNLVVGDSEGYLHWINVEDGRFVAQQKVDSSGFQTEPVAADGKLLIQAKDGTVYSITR
UniProt P0AC02, residues 20-245: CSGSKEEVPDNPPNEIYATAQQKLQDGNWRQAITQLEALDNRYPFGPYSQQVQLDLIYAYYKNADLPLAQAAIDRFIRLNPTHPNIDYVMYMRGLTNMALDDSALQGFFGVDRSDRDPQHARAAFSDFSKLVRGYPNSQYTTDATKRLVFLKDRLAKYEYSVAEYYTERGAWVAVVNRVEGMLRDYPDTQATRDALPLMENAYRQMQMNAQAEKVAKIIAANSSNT

Molecular target: His-tagged N. meningitidis BamA (N. meningitidis) (UniProt Q9K1H0)
Test: pull-down; His-tagged NmBamA purified on Ni2+-NTA agarose beads under native conditions from Elugent extracts of E. coli DH5α cell envelopes; elution fractions immunoblotted with antisera against BamD and BamB; control: cells not induced with IPTG

For “E. coli BamB (from UniProt P77774 20-392)”, the binding was “no binding”.

With “E. coli BamD (from UniProt P0AC02 20-245)” the binding was “binds”.
